Results from patent US12604895B2, “Pesticidally active cyclic amine compounds” (SYNGENTA CROP PROTECTION AG, priority 2020, dated 2026).
Some entries share one result that the patent states for a list of compounds.

Experiments:
[1] = test system: Tetranychus urticae (Two-Spotted Spider Mite); experiment: Example B5: Tetranychus urticae (Two-Spotted Spider Mite), feeding/contact activity; assay type: in vivo; conditions: application rate of 200 ppm; mixed population (mobile stages) on sprayed bean leaf discs; 8 days after infestation
Procedure: Example B5: Tetranychus urticae (Two-Spotted Spider Mite): Feeding/Contact Activity
Bean leaf discs on agar in 24-well microtiter plates were sprayed with aqueous test solutions prepared from 10′000 ppm DMSO stock solutions. After drying the leaf discs were infested with a mite population of mixed ages. The samples were assessed for mortality on mixed population (mobile stages) 8 days after infestation.

[2] = test system: Plutella xylostella (Diamond Back Moth); experiment: Example B3: Plutella xylostella (Diamond Back Moth), artificial diet; assay type: in vivo; conditions: application rate of 200 ppm; eggs, treated artificial diet; 8 days after infestation
Procedure: Example B3: Plutella xylostella (Diamond Back Moth)
24-well microtiter plates with artificial diet were treated with aqueous test solutions prepared from 10′000 ppm DMSO stock solutions by pipetting. After drying, Plutella eggs were pipetted through a plastic stencil onto a gel blotting paper and the plate was closed with it. The samples were assessed for mortality and growth inhibition in comparison to untreated samples 8 days after infestation. The following compounds gave an effect of at least 80% control in at least one of the two categories (mortality or growth inhibition) at an application rate of 200 ppm: P1.2, P1.15, P1.51, P2.1, P2.2, P2.5, P2.10, P2.15, P2.16, P5.1, P5.2, P5.3, P7.1, P8.1

SMILES | mortality [1] | control in at least one of the two categories (mortality or growth inhibition) [2]
CS(=O)(=O)CC1CN(C(=O)c2cc(C#N)c(-c3ccc(C(F)(F)F)cc3)cc2C(F)(F)F)C1 [Compound P3.3] | at least 80% | 
CCO/N=C/C1CCN(C(=O)c2cc(C#N)c(-c3ccc(C(F)(F)F)cc3)cc2C(F)(F)F)CC1 [Compound P1.37] | at least 80% | 
N#Cc1cc(C(=O)N2CCN(C(=O)C(F)(F)F)CC2)c(C(F)(F)F)cc1-c1ccc(C(F)(F)F)cc1 [Compound P2.16] |  | at least 80%
CCCS(=O)(=O)CC1CCN(C(=O)c2cc(C#N)c(-c3ccc(C(F)(F)F)cc3)cc2C)CC1 [Compound P1.35] | at least 80% | 
C[S+]([O-])CCN1CCN(C(=O)c2cc(C#N)c(-c3ccc(C(F)(F)F)cc3)cc2C(F)(F)F)CC1 (stereo not shown) [Compound P2.12] | at least 80% | 
COC1(c2ccc(Cl)cc2)CCN(C(=O)c2cc(C#N)c(-c3ccc(C(F)(F)F)cc3)cc2C(F)(F)F)CC1 [Compound P5.3] |  | at least 80%
CC[S+]([O-])CC1CN(C(=O)c2cc(C#N)c(-c3ccc(C(F)(F)F)cc3)cc2C(F)(F)F)C1 (racemic) [Compound P3.5] | at least 80% | 
C#CC[S+]([O-])CC1CCN(C(=O)c2cc(C#N)c(-c3ccc(C(F)(F)F)cc3)cc2C(F)(F)F)CC1 (stereo not shown) [Compound P1.19] | at least 80% | 
C=CC[S+]([O-])CC1CCN(C(=O)c2cc(C#N)c(-c3ccc(C(F)(F)F)cc3)cc2C(F)(F)F)CC1 (stereo not shown) [Compound P1.16] | at least 80% | 
C#CCSCC1CCN(C(=O)c2cc(C#N)c(-c3ccc(C(F)(F)F)cc3)cc2C)CC1 [Compound P1.30] | at least 80% | 
C=CCSCC1CCN(C(=O)c2cc(C#N)c(-c3ccc(C(F)(F)F)cc3)cc2C)CC1 [Compound P1.27] | at least 80% | 
CCCS(=O)(=O)CC1CN(C(=O)c2cc(C#N)c(-c3ccc(C(F)(F)F)cc3)cc2C(F)(F)F)C1 [Compound P3.8] | at least 80% | 
COc1cc(-c2ccc(C(F)(F)F)cc2)c(C#N)cc1C(=O)N1CCN(c2ncc(Cl)cc2Cl)CC1 [Compound P2.4] | at least 80% | 
CO/N=C/C1CCN(C(=O)c2cc(C#N)c(-c3ccc(C(F)(F)F)cc3)cc2C(F)(F)F)CC1 [Compound P1.36] | at least 80% | 
N#Cc1cc(C(=O)N2CCC(c3ccccc3)CC2)c(C(F)(F)F)cc1-c1ccc(C(F)(F)F)cc1 [Compound P1.51] |  | at least 80%
CCOCC1CCN(C(=O)c2cc(C#N)c(-c3ccc(C(F)(F)F)cc3)cc2C(F)(F)F)CC1 [Compound P1.52] | at least 80% | 
N#Cc1cc(C(=O)N2CCC(O)(c3ccccc3)CC2)c(C(F)(F)F)cc1-c1ccc(C(F)(F)F)cc1 [Compound P5.1] |  | at least 80%
CCOc1cc(-c2ccc(C(F)(F)F)cc2)c(C#N)cc1C(=O)N1CCC(c2noc(C)n2)CC1 [Compound P1.45] | at least 80% | 
CCCSCC1CCN(C(=O)c2cc(C#N)c(-c3ccc(C(F)(F)F)cc3)cc2C(F)(F)F)CC1 [Compound P1.21] | at least 80% | 
CCCSCC1CCN(C(=O)c2cc(C#N)c(-c3ccc(C(F)(F)F)cc3)cc2C)CC1 [Compound P1.33] | at least 80% | 

SMILES | mortality [1] | control in at least one of the two categories (mortality or growth inhibition) [2]
CON=C1CCN(C(=O)c2cc(C#N)c(-c3ccc(C(F)(F)F)cc3)cc2C(F)(F)F)CC1 [Compound P4.1] | at least 80% | 
C=CC[S+]([O-])CC1CCN(C(=O)c2cc(C#N)c(-c3ccc(C(F)(F)F)cc3)cc2C)CC1 (stereo not shown) [Compound P1.28] | at least 80% | 
CSCCN1CCN(C(=O)c2cc(C#N)c(-c3ccc(C(F)(F)F)cc3)cc2C(F)(F)F)CC1 [Compound P2.11] | at least 80% | 
CCSCC1CCN(C(=O)c2ccc(-c3ccc(C(F)(F)F)cc3)c(C#N)c2)CC1 [Compound P1.10] | at least 80% | 
N#Cc1cc(C(=O)N2CCN(CC(F)(F)F)CC2)c(C(F)(F)F)cc1-c1ccc(C(F)(F)F)cc1 [Compound P2.9] | at least 80% | 
CCN(C)C(=O)C1CCN(C(=O)c2cc(C#N)c(-c3ccc(C(F)(F)F)cc3)cc2C(F)(F)F)CC1 [Compound P1.40] | at least 80% | 
CS(=O)(=O)CC1CCN(C(=O)c2cc(C#N)c(-c3ccc(C(F)(F)F)cc3)cc2C(F)(F)F)CC1 [Compound P1.14] | at least 80% | 
C[S+]([O-])CC1CCN(C(=O)c2cc(C#N)c(-c3ccc(C(F)(F)F)cc3)cc2C(F)(F)F)CC1 (stereo not shown) [Compound P1.13] | at least 80% | 
CN(C)C(=O)C1CCN(C(=O)c2cc(C#N)c(-c3ccc(C(F)(F)F)cc3)cc2C(F)(F)F)CC1 [Compound P1.39] | at least 80% | 
N#CCN1CCN(C(=O)c2cc(C#N)c(-c3ccc(C(F)(F)F)cc3)cc2C(F)(F)F)CC1 [Compound P2.7] | at least 80% | 
CCSCC1CCN(C(=O)c2cc(C#N)c(-c3ccc(C(F)(F)F)cc3)cc2OC)CC1 [Compound P1.44] | at least 80% | 
CCS(=O)(=O)CC1CN(C(=O)c2cc(C#N)c(-c3ccc(C(F)(F)F)cc3)cc2C(F)(F)F)C1 [Compound P3.6] | at least 80% | 
C#CCS(=O)(=O)CC1CCN(C(=O)c2cc(C#N)c(-c3ccc(C(F)(F)F)cc3)cc2C(F)(F)F)CC1 [Compound P1.20] | at least 80% | 
Cc1cc(-c2ccc(C(F)(F)F)cc2)c(C#N)cc1C(=O)N1CCC(N2CCCS2(=O)=O)CC1 [Compound P1.8] | at least 80% | 
CS(=O)(=O)NC1CCN(C(=O)c2cc(C#N)c(-c3ccc(C(F)(F)F)cc3)cc2C(F)(F)F)CC1 [Compound P1.41] | at least 80% | 
N#Cc1cc(C(=O)N2CCN(C#N)CC2)c(C(F)(F)F)cc1-c1ccc(C(F)(F)F)cc1 [Compound P2.6] | at least 80% | 
N#CCCN1CCN(C(=O)c2cc(C#N)c(-c3ccc(C(F)(F)F)cc3)cc2C(F)(F)F)CC1 [Compound P2.8] | at least 80% | 
CCCS(=O)(=O)CC1CCN(C(=O)c2cc(C#N)c(-c3ccc(C(F)(F)F)cc3)cc2C(F)(F)F)CC1 [Compound P1.23] | at least 80% | 
CSCC1CCN(C(=O)c2cc(C#N)c(-c3ccc(C(F)(F)F)cc3)cc2C(F)(F)F)CC1 [Compound P1.12] | at least 80% | 
C#CCSCC1CCN(C(=O)c2cc(C#N)c(-c3ccc(C(F)(F)F)cc3)cc2C(F)(F)F)CC1 [Compound P1.18] | at least 80% | 

SMILES | mortality [1] | control in at least one of the two categories (mortality or growth inhibition) [2]
C=CCS(=O)(=O)CC1CCN(C(=O)c2cc(C#N)c(-c3ccc(C(F)(F)F)cc3)cc2C)CC1 [Compound P1.29] | at least 80% | 
CCON=C1CCN(C(=O)c2cc(C#N)c(-c3ccc(C(F)(F)F)cc3)cc2C(F)(F)F)CC1 [Compound P4.2] | at least 80% | 
N#Cc1cc(C(=O)N2CCC(N3CCCS3(=O)=O)CC2)ccc1-c1ccc(C(F)(F)F)cc1 [Compound P1.11] | at least 80% | 
C=CCS(=O)(=O)CC1CCN(C(=O)c2cc(C#N)c(-c3ccc(C(F)(F)F)cc3)cc2C(F)(F)F)CC1 [Compound P1.17] | at least 80% | 
Cc1cc(-c2ccc(C(F)(F)F)cc2)c(C#N)cc1C(=O)N1CCC(C[S+](C)[O-])CC1 (stereo not shown) [Compound P1.25] | at least 80% | 
C[S+]([O-])CC1CN(C(=O)c2cc(C#N)c(-c3ccc(C(F)(F)F)cc3)cc2C(F)(F)F)C1 (racemic) [Compound P3.2] | at least 80% | 
CCSCC1CCN(C(=O)c2cc(C#N)c(-c3ccc(C(F)(F)F)cc3)cc2C)CC1 [Compound P1.7] | at least 80% | 
N#Cc1cc(C(=O)N2CCN(c3ncc(Cl)cc3Cl)CC2)ccc1-c1ccc(C(F)(F)F)cc1 [Compound P2.3] | at least 80% | 
Cc1nc(C2CCN(C(=O)c3cc(C#N)c(-c4ccc(C(F)(F)F)cc4)cc3C)CC2)no1 [Compound P1.6] | at least 80% | 
CCC[S+]([O-])CC1CCN(C(=O)c2cc(C#N)c(-c3ccc(C(F)(F)F)cc3)cc2C)CC1 (stereo not shown) [Compound P1.34] | at least 80% | 
Cn1cnc(C2CCN(C(=O)c3cc(C#N)c(-c4ccc(C(F)(F)F)cc4)cc3C(F)(F)F)CC2)n1 [Compound P1.50] | at least 80% | 
COc1cc(-c2ccc(C(F)(F)F)cc2)c(C#N)cc1C(=O)N1CCC(c2noc(C)n2)CC1 [Compound P1.43] | at least 80% | 
CCS(=O)(=O)NC1CCN(C(=O)c2cc(C#N)c(-c3ccc(C(F)(F)F)cc3)cc2C(F)(F)F)CC1 [Compound P1.42] | at least 80% | 
CSCC1CN(C(=O)c2cc(C#N)c(-c3ccc(C(F)(F)F)cc3)cc2C(F)(F)F)C1 [Compound P3.1] | at least 80% | 
N#Cc1cc(C(=O)N2CCC(N3CCCS3(=O)=O)CC2)c(C(F)(F)F)cc1-c1ccc(C(F)(F)F)cc1 [Compound P1.5] | at least 80% | 
CS(=O)(=O)N1CCN(C(=O)c2cc(C#N)c(-c3ccc(C(F)(F)F)cc3)cc2C(F)(F)F)CC1 [Compound P2.13] | at least 80% | 
C#CC[S+]([O-])CC1CCN(C(=O)c2cc(C#N)c(-c3ccc(C(F)(F)F)cc3)cc2C)CC1 (stereo not shown) [Compound P1.31] | at least 80% | 
CSCC1CCN(C(=O)c2cc(C#N)c(-c3ccc(C(F)(F)F)cc3)cc2C)CC1 [Compound P1.24] | at least 80% | 
